PubChem BioAssay AID1224826 | NIAID – 2016

- Test: 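Knock-downs that raise or lower Tnf reporter signal after endotoxin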 (primary screen)
- Cells: RAW264.7 G9 macrophages from mouse bearing reporters for p65 (GFP) and the Tnf promoter (mCherry)
- Reagent: siRNA pool against mouse genes, 100 nM
- Time to read-out: 16 h of LPS stimulation, after 2 days of siRNA transfection
- Conditions: bacterial lipopolysaccharide (Salmonella minnesota R595), 10 ng/ml
- Detection: 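Nuclear mCherry signal of the Tnf promoter reporter measured by imaging after background removal, scaled to each plate median and turned into robust z-scores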
- Direction: Tnf reporter robust z-score: higher = stronger Tnf promoter reporter signal after LPS
- Call rule: 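Called active when robust z-score is at most -1.3, matching the median of the Tlr4 knock-down control, or over 3; control wells and wells with under 50 cells never active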
- Meaning of the calls: active = Tnf reporter clearly lowered or raised; inactive = no clear change in Tnf reporter
This is a random part of about 17,000 deposited reagents. About 1,110 of all reagents (6.6%) were called active. 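Active means lowered or raised reporter signal; replicate intensities are raw and not normalised per plate.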 Further read-outs or replicates are left out here. Reagent sequences are not shown.

1700020M10Rik (GeneID 109011) — fewer than 50 cells in well = fewer than 50 cells per well; well left out of calls; call = inactive
Stau1 (GeneID 20853) — Tnf reporter robust z-score = 4.5; fewer than 50 cells in well = enough cells in well; call = active
Luzp1 (GeneID 269593) — Tnf reporter robust z-score = 0.64; fewer than 50 cells in well = enough cells in well; call = inactive
Nphp3 (GeneID 74025) — Tnf reporter robust z-score = 1.02; fewer than 50 cells in well = enough cells in well; call = inactive
Akip1 (GeneID 57373) — Tnf reporter robust z-score = -0.6; fewer than 50 cells in well = enough cells in well; call = inactive
Mbd3 (GeneID 17192) — Tnf reporter robust z-score = 0.37; fewer than 50 cells in well = enough cells in well; call = inactive
Igsf21 (GeneID 230868) — fewer than 50 cells in well = fewer than 50 cells per well; well left out of calls; call = inactive
Flt3 (GeneID 14255) — Tnf reporter robust z-score = 0.48; fewer than 50 cells in well = enough cells in well; call = inactive
Vti1b (GeneID 53612) — Tnf reporter robust z-score = 0.66; fewer than 50 cells in well = enough cells in well; call = inactive
Bpifb9a (GeneID 71425) — Tnf reporter robust z-score = -0.71; fewer than 50 cells in well = enough cells in well; call = inactive
Fanca (GeneID 14087) — Tnf reporter robust z-score = 1.81; fewer than 50 cells in well = enough cells in well; call = inactive
Bfsp1 (GeneID 12075) — Tnf reporter robust z-score = -0.07; fewer than 50 cells in well = enough cells in well; call = inactive
Scamp5 (GeneID 56807) — Tnf reporter robust z-score = 0.73; fewer than 50 cells in well = enough cells in well; call = inactive
Henmt1 (GeneID 66715) — Tnf reporter robust z-score = -0.37; fewer than 50 cells in well = enough cells in well; call = inactive
Spsb2 (GeneID 14794) — Tnf reporter robust z-score = 0.03; fewer than 50 cells in well = enough cells in well; call = inactive
Gdpd5 (GeneID 233552) — Tnf reporter robust z-score = -0.21; fewer than 50 cells in well = enough cells in well; call = inactive
Slc20a2 (GeneID 20516) — Tnf reporter robust z-score = 2.19; fewer than 50 cells in well = enough cells in well; call = inactive

Next part, starting with the last 3 of the part before.
Spsb2 (GeneID 14794) — Tnf reporter robust z-score = 0.03; fewer than 50 cells in well = enough cells in well; call = inactive
Gdpd5 (GeneID 233552) — Tnf reporter robust z-score = -0.21; fewer than 50 cells in well = enough cells in well; call = inactive
Slc20a2 (GeneID 20516) — Tnf reporter robust z-score = 2.19; fewer than 50 cells in well = enough cells in well; call = inactive
Or5k17 (GeneID 259001) — Tnf reporter robust z-score = -1.3; fewer than 50 cells in well = enough cells in well; call = active
Nfatc4 (GeneID 73181) — Tnf reporter robust z-score = -0.02; fewer than 50 cells in well = enough cells in well; call = inactive
Vamp4 (GeneID 53330) — Tnf reporter robust z-score = 0.32; fewer than 50 cells in well = enough cells in well; call = inactive
Serpinh1 (GeneID 12406) — Tnf reporter robust z-score = 0.47; fewer than 50 cells in well = enough cells in well; call = inactive
Cnksr3 (GeneID 215748) — Tnf reporter robust z-score = 0.02; fewer than 50 cells in well = enough cells in well; call = inactive
Rev3l (GeneID 19714) — Tnf reporter robust z-score = -0.84; fewer than 50 cells in well = enough cells in well; call = inactive
Cyp2c55 (GeneID 72082) — Tnf reporter robust z-score = 0.57; fewer than 50 cells in well = enough cells in well; call = inactive
Gnpat (GeneID 14712) — Tnf reporter robust z-score = -0.77; fewer than 50 cells in well = enough cells in well; call = inactive
Ckmt1 (GeneID 12716) — Tnf reporter robust z-score = 0.63; fewer than 50 cells in well = enough cells in well; call = inactive
Pdia3 (GeneID 14827) — Tnf reporter robust z-score = -0.54; fewer than 50 cells in well = enough cells in well; call = inactive
